Some of the results follow.
Key:
Assay in all cases: log2 fold change, soluble protein after heating vs DMSO (PISA); higher = thermal stabilisation; K562 lysate, 10 uM; active = over 0.2 and 3.5 SD of the protein, either way, in both replicates (recomputed)
[1] = compound: NCC(=O)Nc1ccc(-n2nc(C(F)(F)F)cc2-c2ccc3c(ccc4ccccc43)c2)cc1
How it was run: (§1)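 Following dounce homogenisation of K562 pellets in PBS pH 7.4 with 1 mM MgCl2, crude extract at 1 mg/mL protein was incubated for 30 min with 10 μM compound. Aliquots were then heated for 3 min over 48°C-58°C and pooled, NP-40 was added to 0.5% at 4°C, and soluble protein was recovered as the supernatant at 21,000xg for 90 min. Channel-sum-equalised TMTpro 16plex LC-MS/MS quantified this protein. Each value, from duplicates, is a log-two fold change in thermal stability relative to solvent controls.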

The chains behind the UniProt entries cited, without tags or fusion partners. Where a name states a change or a piece, a line headed by the entry shows the natural chain unless it says otherwise.
UniProt Q07960: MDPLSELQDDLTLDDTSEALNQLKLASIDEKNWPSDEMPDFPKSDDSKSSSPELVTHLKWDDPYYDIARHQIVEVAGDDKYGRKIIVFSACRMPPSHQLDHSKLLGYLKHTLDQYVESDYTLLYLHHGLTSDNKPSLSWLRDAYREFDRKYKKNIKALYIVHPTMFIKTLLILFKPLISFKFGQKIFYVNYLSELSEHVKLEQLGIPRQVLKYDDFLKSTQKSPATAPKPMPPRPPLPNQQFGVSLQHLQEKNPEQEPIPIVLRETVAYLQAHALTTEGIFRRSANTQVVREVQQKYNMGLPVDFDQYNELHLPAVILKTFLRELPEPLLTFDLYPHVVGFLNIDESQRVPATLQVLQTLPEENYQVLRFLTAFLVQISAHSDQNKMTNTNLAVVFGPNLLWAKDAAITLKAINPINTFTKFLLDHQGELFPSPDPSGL
UniProt Q66PJ3: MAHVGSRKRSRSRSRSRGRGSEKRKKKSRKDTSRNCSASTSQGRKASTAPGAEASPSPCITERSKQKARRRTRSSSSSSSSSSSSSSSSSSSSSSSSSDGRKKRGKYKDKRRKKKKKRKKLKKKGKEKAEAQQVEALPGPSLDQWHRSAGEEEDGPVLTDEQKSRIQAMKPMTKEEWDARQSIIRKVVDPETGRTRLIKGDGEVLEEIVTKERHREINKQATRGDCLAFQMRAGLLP
UniProt Q68EM7: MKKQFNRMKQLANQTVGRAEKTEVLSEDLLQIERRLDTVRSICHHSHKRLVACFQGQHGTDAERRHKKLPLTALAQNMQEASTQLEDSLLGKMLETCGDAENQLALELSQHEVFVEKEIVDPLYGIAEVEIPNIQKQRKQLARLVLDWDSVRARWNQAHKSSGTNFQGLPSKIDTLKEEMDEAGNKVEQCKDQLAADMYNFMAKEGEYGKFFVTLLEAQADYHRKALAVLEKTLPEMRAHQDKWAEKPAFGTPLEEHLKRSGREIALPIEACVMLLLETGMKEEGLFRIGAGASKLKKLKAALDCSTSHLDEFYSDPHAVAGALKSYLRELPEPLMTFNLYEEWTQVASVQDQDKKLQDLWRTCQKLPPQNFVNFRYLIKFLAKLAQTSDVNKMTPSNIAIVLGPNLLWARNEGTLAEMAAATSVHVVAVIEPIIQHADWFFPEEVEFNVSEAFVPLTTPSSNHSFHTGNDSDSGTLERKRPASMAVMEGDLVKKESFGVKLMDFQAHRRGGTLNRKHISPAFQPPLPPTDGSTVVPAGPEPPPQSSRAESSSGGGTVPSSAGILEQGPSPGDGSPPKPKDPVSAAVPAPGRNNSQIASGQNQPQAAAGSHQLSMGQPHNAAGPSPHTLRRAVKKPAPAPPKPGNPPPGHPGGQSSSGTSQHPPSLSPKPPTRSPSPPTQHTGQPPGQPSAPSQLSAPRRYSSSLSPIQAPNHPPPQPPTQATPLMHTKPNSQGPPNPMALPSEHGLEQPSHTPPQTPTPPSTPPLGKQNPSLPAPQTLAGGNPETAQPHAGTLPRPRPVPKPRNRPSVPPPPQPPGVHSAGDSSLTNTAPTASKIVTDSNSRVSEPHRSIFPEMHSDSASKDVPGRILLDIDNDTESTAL
UniProt P62330: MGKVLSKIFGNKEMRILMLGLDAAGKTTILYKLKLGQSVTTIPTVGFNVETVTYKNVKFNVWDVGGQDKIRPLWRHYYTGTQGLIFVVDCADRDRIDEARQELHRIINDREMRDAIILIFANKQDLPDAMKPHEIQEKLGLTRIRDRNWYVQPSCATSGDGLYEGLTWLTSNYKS
UniProt P32121, whole entry, looked up: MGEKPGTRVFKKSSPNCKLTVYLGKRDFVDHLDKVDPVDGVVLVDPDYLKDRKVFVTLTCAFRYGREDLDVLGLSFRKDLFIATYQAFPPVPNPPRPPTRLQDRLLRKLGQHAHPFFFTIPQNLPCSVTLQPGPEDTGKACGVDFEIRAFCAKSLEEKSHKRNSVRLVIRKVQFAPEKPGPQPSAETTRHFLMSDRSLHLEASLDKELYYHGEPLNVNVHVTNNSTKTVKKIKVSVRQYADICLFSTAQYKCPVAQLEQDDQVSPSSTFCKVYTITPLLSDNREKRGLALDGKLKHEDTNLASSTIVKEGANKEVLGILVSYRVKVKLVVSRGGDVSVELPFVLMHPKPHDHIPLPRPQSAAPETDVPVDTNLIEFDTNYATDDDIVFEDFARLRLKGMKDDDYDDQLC
UniProt P52566: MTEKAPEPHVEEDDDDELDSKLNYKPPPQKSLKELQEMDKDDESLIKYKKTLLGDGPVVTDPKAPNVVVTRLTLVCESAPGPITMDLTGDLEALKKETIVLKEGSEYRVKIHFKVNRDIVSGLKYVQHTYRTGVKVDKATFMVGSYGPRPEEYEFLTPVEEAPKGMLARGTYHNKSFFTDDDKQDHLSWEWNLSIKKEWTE
UniProt Q92974: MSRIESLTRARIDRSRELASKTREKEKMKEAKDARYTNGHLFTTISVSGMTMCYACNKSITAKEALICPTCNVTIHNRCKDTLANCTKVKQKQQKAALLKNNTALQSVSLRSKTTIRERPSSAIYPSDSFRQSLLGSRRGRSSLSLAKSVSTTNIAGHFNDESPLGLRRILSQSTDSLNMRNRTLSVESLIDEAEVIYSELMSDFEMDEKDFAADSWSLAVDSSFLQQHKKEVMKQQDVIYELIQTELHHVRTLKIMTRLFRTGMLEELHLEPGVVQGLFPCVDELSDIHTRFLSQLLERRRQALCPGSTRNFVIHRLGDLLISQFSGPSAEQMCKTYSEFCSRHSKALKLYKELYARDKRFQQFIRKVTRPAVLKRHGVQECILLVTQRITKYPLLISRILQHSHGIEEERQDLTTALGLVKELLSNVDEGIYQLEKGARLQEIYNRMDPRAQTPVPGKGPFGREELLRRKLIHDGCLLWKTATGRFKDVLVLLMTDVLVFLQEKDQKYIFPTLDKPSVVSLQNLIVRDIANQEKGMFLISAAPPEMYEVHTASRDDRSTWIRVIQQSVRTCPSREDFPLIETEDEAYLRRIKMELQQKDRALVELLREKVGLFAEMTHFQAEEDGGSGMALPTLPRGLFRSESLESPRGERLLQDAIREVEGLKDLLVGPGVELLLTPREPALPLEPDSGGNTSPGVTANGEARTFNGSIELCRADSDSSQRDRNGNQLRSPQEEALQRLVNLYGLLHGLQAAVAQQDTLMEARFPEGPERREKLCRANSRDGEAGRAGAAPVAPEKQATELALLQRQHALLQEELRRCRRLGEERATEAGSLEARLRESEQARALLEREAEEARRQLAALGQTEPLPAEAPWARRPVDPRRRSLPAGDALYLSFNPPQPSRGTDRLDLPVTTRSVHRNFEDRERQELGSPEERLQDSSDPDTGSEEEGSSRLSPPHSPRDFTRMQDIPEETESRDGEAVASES
UniProt Q96GX9: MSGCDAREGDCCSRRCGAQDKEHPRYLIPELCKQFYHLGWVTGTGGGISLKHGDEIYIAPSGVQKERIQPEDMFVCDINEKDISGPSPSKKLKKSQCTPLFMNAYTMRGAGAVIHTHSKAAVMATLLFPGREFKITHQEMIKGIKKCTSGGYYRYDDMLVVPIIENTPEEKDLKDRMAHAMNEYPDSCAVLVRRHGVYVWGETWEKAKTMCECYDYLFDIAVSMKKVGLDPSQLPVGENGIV
UniProt P36405: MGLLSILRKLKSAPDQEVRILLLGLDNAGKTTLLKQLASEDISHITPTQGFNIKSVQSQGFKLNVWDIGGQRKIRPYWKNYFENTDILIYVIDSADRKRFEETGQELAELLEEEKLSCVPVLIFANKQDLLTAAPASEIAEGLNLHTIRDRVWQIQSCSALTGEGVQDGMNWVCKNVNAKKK
UniProt Q9Y4X5: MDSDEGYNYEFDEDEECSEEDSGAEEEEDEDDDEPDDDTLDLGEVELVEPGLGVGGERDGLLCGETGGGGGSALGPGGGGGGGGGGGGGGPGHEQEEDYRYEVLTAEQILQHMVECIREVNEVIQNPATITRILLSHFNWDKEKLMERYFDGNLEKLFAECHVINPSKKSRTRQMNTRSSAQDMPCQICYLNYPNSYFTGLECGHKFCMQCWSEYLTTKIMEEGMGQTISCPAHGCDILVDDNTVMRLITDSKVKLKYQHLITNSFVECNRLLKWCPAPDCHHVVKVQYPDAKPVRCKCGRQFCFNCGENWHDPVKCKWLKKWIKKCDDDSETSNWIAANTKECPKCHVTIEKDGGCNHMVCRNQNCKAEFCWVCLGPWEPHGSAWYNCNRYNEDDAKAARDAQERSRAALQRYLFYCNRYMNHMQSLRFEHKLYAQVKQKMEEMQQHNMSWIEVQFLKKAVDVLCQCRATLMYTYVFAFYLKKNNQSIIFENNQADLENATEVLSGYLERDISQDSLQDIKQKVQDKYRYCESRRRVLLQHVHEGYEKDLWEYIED
UniProt P02654: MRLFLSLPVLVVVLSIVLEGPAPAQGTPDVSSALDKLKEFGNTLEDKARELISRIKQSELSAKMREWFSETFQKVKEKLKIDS
UniProt Q9BPX5, whole entry, looked up: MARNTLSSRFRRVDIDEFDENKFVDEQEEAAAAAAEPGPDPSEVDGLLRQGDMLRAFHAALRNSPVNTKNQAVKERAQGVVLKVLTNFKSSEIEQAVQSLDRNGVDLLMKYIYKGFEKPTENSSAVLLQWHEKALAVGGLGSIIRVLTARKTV
UniProt Q9HC16: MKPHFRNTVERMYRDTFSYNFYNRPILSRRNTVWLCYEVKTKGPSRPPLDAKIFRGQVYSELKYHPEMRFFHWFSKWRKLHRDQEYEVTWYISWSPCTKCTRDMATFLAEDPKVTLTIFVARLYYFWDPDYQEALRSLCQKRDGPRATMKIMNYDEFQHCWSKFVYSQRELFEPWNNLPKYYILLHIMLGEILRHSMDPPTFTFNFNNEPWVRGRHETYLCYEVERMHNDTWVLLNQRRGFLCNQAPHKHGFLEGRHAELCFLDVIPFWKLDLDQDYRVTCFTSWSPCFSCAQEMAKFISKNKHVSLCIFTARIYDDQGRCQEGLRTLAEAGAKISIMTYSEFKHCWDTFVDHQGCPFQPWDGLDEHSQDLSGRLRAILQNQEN
UniProt Q99856: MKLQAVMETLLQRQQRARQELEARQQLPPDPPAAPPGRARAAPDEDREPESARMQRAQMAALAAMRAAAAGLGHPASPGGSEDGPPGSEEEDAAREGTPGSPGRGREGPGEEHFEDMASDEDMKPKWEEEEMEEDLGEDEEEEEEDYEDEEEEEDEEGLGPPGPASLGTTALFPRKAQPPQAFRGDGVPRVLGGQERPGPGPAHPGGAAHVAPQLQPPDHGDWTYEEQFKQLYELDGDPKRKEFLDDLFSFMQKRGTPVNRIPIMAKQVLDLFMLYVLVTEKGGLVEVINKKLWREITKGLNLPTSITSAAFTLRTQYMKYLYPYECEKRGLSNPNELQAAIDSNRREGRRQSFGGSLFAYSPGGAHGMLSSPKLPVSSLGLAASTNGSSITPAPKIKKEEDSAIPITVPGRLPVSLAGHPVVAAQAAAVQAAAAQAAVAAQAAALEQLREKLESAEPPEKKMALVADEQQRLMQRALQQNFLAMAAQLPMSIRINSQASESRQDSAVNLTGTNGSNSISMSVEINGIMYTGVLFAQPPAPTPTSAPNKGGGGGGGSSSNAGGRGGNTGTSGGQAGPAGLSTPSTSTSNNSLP
UniProt Q8N6H7: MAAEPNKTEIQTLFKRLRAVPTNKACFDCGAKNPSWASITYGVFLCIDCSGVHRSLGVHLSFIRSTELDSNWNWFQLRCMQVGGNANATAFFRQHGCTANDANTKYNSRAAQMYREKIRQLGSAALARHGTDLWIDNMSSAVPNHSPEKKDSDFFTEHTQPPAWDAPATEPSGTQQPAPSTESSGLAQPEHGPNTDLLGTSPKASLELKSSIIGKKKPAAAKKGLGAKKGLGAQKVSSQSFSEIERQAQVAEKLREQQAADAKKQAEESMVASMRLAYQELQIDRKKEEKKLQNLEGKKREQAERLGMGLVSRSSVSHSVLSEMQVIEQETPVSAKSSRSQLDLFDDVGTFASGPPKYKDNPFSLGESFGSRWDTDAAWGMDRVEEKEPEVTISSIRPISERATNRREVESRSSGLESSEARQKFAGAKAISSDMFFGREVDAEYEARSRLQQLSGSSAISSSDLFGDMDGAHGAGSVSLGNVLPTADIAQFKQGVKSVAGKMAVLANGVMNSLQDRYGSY
UniProt Q9HDC9: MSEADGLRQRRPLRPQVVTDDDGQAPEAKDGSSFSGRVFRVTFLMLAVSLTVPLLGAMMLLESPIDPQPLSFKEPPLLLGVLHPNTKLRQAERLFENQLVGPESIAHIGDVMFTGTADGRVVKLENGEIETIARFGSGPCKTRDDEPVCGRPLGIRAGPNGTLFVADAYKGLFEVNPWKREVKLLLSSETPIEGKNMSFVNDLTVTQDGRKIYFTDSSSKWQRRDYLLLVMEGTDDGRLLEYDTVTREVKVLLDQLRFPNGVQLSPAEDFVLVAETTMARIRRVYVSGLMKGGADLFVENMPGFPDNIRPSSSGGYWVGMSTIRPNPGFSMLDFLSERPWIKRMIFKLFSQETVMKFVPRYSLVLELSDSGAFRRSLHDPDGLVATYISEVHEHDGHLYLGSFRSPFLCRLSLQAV

vorinostat = compound: O=C(CCCCCCC(=O)Nc1ccccc1)NO [vorinostat]
How it was run: as §1

silmitasertib = compound: O=C(O)c1ccc2c(c1)nc(Nc1cccc(Cl)c1)c1ccncc12 [silmitasertib]
How it was run: as §1

[2] = compound: O=C1NC(=O)C(c2cnc3ccccn23)=C1c1cn2c3c(cc(F)cc13)CN(C(=O)N1CCCCC1)CC2
How it was run: as §1

entospletinib = compound: c1cn2cc(-c3ccc4cn[nH]c4c3)nc(Nc3ccc(N4CCOCC4)cc3)c2n1 [entospletinib]
How it was run: as §1

Target | log2 fold change [1] | log2 fold change (vorinostat) | log2 fold change (silmitasertib) | log2 fold change [2] | log2 fold change (entospletinib)
ARID4A (UniProt P29374) | inactive: -0.024 | inactive: -0.049 | inactive: -0.032 | – | –
ARHGEF18 (UniProt Q6ZSZ5) | inactive: 0.034 | inactive: -0.078 | inactive: -0.012 | inactive: -0.061 | inactive: 0.046
ARHGAP1 (UniProt Q07960) | inactive: 0.03 | inactive: 0.149 | inactive: -0.029 | inactive: -0.017 | inactive: 0.028
ARHGAP12 isoform 3 (UniProt Q8IWW6) | inactive: -0.163 | – | – | – | –
ARMT1 (UniProt Q9H993) | inactive: 0.013 | inactive: -0.049 | inactive: -0.019 | inactive: -0.035 | inactive: 0.051
ARL6IP4 isoform 4 (UniProt Q66PJ3) | inactive: 0.163 | – | – | – | –
ARHGAP18 (UniProt Q8N392) | inactive: -0.002 | inactive: -0.103 | inactive: -0.007 | inactive: -0.007 | inactive: 0.027
ARHGAP25 isoform 4 (UniProt P42331) | inactive: 0.027 | active: -0.377 | inactive: 0.011 | inactive: -0.038 | inactive: 0.009
ARHGAP17 (UniProt Q68EM7) | inactive: -0.005 | inactive: 0.08 | inactive: -0.002 | inactive: -0.023 | inactive: -0.014
ARL14EP (UniProt Q8N8R7) | inactive: 0.075 | inactive: -0.016 | inactive: 0.014 | inactive: -0.099 | –
ARID3B (UniProt Q8IVW6) | inactive: -0.021 | inactive: -0.162 | inactive: 0.011 | inactive: 0.002 | inactive: -0.176
ARHGAP5 (UniProt Q13017) | inactive: -0.04 | inactive: -0.005 | inactive: 0.031 | inactive: 0.052 | inactive: 0.032
ARHGAP27 (UniProt Q6ZUM4) | inactive: 0.067 | – | – | – | –
ARAP1 (UniProt Q96P48) | inactive: -0.04 | active: -0.379 | inactive: 0.017 | inactive: -0.014 | inactive: -0.012
ARHGAP19 isoform 2 (UniProt Q14CB8) | inactive: -0.021 | inactive: -0.231 | inactive: -0.012 | inactive: -0.101 | inactive: 0.063
ARHGAP4 isoform 2 (UniProt P98171) | inactive: 0.005 | inactive: -0.15 | inactive: 0.011 | inactive: 0.045 | inactive: 0.001
ARF6 (UniProt P62330) | inactive: 0.034 | inactive: -0.005 | inactive: 0.079 | inactive: -0.032 | inactive: -0.022
ARPC1B (UniProt O15143) | inactive: -0.01 | inactive: 0.08 | inactive: 0.001 | inactive: -0.031 | inactive: 0.011
ARRB2 isoform 3 (UniProt P32121) | inactive: 0.074 | inactive: 0.079 | inactive: 0.007 | inactive: -0.02 | inactive: 0.027
APOBEC3C (UniProt Q9NRW3) | inactive: 0.055 | active: -0.278 | inactive: 0.043 | inactive: -0.066 | inactive: -0.007
ARHGDIB (UniProt P52566) | inactive: -0.016 | inactive: 0.096 | inactive: 0.002 | inactive: -0.025 | inactive: 0
ARID4B (UniProt Q4LE39) | inactive: 0.019 | inactive: -0.015 | inactive: -0.019 | inactive: -0.015 | inactive: -0.055
ARPP19 (UniProt H3BMD8) | inactive: 0.038 | inactive: 0.135 | inactive: -0.001 | inactive: 0.025 | inactive: -0.003
ARFGAP3 (UniProt Q9NP61) | inactive: 0.022 | inactive: -0.091 | inactive: -0.046 | inactive: -0.018 | inactive: 0.019
ARSA (UniProt P15289) | inactive: -0.008 | inactive: 0.077 | inactive: 0.022 | inactive: -0.03 | inactive: -0.084
ARHGEF2 (UniProt Q92974) | inactive: 0.042 | active: -0.248 | inactive: -0.029 | inactive: 0.007 | inactive: 0
APIP (UniProt Q96GX9) | inactive: 0.015 | inactive: 0.077 | inactive: 0.011 | inactive: 0.014 | inactive: -0.027
ARL3 (UniProt P36405) | inactive: -0.009 | inactive: 0.067 | inactive: -0.032 | inactive: -0.033 | inactive: 0.013

Target | log2 fold change [1] | log2 fold change (vorinostat) | log2 fold change (silmitasertib) | log2 fold change [2] | log2 fold change (entospletinib)
APEH (UniProt P13798) | inactive: 0.012 | inactive: 0.12 | inactive: -0.002 | inactive: -0.011 | inactive: 0.011
ARIH2 (UniProt O95376) | inactive: -0.005 | inactive: 0.157 | inactive: 0.019 | inactive: -0.006 | inactive: -0.018
ARRB1 (UniProt P49407) | inactive: 0.016 | inactive: 0.015 | inactive: -0.009 | inactive: 0.019 | inactive: -0.003
ARIH1 (UniProt Q9Y4X5) | inactive: -0.008 | inactive: 0.015 | inactive: 0.019 | inactive: -0.02 | inactive: 0.032
APOC1 (UniProt P02654) | inactive: 0.061 | inactive: 0.103 | inactive: -0.079 | inactive: -0.028 | inactive: -0.061
APBA3 (UniProt O96018) | inactive: 0.223 | inactive: 0.018 | inactive: -0.083 | inactive: 0.115 | inactive: -0.091
ARL6IP5 (UniProt O75915) | inactive: 0.003 | inactive: -0.01 | inactive: 0.044 | inactive: -0.082 | inactive: -0.017
ARID1A (UniProt O14497) | inactive: -0.001 | inactive: -0.1 | inactive: 0.007 | inactive: -0.022 | inactive: -0.015
ARPC5L (UniProt Q9BPX5) | inactive: 0.008 | inactive: 0.113 | inactive: -0.004 | inactive: -0.029 | inactive: -0.008
APTX (UniProt Q7Z2E3) | inactive: 0.019 | inactive: -0.23 | inactive: 0.045 | inactive: 0.02 | inactive: -0.098
ARG2 (UniProt P78540) | inactive: 0.024 | inactive: 0.143 | inactive: -0.037 | inactive: -0.003 | inactive: -0.033
API5 (UniProt Q9BZZ5) | inactive: -0.004 | inactive: 0.101 | inactive: -0.017 | inactive: -0.018 | inactive: 0.026
APC (UniProt P25054) | inactive: -0.099 | inactive: -0.025 | inactive: -0.007 | inactive: -0.021 | inactive: -0.103
APOBEC3G (UniProt Q9HC16) | inactive: -0.045 | inactive: 0.091 | inactive: -0.035 | inactive: 0.014 | inactive: 0.008
ARHGEF10 (UniProt O15013) | inactive: 0.009 | inactive: -0.291 | inactive: 0.021 | inactive: 0.032 | inactive: 0.08
ASAP1 isoform 2 (UniProt Q9ULH1) | inactive: 0.037 | inactive: -0.055 | inactive: 0.01 | inactive: -0.021 | inactive: -0.017
ARFGAP1 (UniProt Q8N6T3) | inactive: 0.063 | inactive: 0.253 | inactive: -0.066 | inactive: -0.12 | inactive: 0.038
ARID3A (UniProt Q99856) | inactive: 0.003 | inactive: -0.107 | inactive: 0.014 | inactive: 0.03 | inactive: -0.025
AP5Z1 (UniProt O43299) | inactive: 0.157 | inactive: 0.037 | inactive: -0.018 | inactive: 0.09 | inactive: -0.005
ARHGEF1 (UniProt M0QZR4) | inactive: 0.019 | active: -0.392 | inactive: 0.023 | inactive: 0.004 | inactive: 0.003
ARHGAP21 (UniProt Q5T5U3) | inactive: 0.021 | active: -0.364 | inactive: 0.014 | inactive: -0.041 | inactive: -0.104
APOO (UniProt Q9BUR5) | inactive: -0.035 | inactive: 0.073 | inactive: 0.032 | inactive: -0.027 | inactive: 0.015
APBA2 (UniProt Q99767) | inactive: -0.024 | inactive: -0.096 | inactive: 0.023 | inactive: 0.02 | inactive: 0.002
ARFGAP2 (UniProt Q8N6H7) | inactive: -0.028 | inactive: 0.054 | inactive: 0.007 | inactive: -0.082 | inactive: 0.011
ARL8A (UniProt Q96BM9) | inactive: 0.192 | inactive: 0.234 | inactive: -0.024 | inactive: -0.03 | inactive: 0.002
ARMC1 (UniProt Q9NVT9) | inactive: 0.036 | inactive: -0.139 | inactive: 0.017 | inactive: 0.007 | inactive: -0.047
APMAP (UniProt Q9HDC9) | inactive: 0.007 | inactive: 0.084 | inactive: -0.001 | inactive: -0.033 | inactive: 0

An excerpt of these results, as tab-separated lines:
Target	log2 fold change [1]	log2 fold change (vorinostat)	log2 fold change (silmitasertib)	log2 fold change [2]	log2 fold change (entospletinib)
ARL6IP5 (UniProt O75915)	inactive: 0.003	inactive: -0.01	inactive: 0.044	inactive: -0.082	inactive: -0.017
ARID1A (UniProt O14497)	inactive: -0.001	inactive: -0.1	inactive: 0.007	inactive: -0.022	inactive: -0.015
